Measured values reported in PMC12336819.
Results are given in words; binding and its absence hold for the method and conditions named. In cells and extracts the contact can be indirect. Some binding calls cover weakened binding; strength is not graded here.

Chains of the proteins cited; added tags and fusions are not shown.
UniProt P40763: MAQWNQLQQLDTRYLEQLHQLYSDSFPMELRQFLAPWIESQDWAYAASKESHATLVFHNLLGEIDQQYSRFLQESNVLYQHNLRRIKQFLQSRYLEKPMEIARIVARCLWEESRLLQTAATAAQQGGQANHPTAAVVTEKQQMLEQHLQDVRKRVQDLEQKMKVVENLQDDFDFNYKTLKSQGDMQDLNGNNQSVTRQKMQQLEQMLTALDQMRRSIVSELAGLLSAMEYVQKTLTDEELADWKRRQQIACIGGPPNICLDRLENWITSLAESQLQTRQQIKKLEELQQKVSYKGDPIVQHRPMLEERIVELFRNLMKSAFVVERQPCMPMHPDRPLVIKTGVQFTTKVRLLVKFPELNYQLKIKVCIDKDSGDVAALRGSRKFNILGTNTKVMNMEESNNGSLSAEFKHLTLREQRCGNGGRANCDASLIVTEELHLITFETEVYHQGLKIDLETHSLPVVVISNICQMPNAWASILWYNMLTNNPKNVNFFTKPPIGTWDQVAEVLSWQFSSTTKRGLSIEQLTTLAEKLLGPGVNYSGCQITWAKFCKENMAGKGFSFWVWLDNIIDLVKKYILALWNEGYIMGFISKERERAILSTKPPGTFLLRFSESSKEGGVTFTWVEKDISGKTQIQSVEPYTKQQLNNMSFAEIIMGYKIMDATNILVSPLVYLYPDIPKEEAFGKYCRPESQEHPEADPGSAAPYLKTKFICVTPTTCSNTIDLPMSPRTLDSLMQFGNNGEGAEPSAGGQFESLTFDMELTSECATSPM

Target: polynucleotide kinase/phosphatase (PNKP) (human (endogenous in TNBC cell lines)) (UniProt Q96T60)
Test: co-IP; anti-PNKP antibody (sc-271505) with 500 ug TNBC cell lysate overnight at 4 C, protein A/G-PLUS-agarose; IP buffer 1% NP-40, 20 mM Hepes pH 7.5, 100 mM NaCl, 5 mM MgCl2; Western blot for STAT3; cells in steady state or 24 hr after doxorubicin; control without anti-PNKP

binding: binds
Substance: STAT3 (from UniProt P40763 1-770)
